This is one part of the list. The main result of the screen is listed elsewhere. These columns were measured beside it and carry no call. Most of these compounds were active or inconclusive in the main read-out, so they are no random draw. Words in brackets tell the shape of the fitted curve; partial curves, single points and poor fits give uncertain potencies.
Experiment: qHTS Assay for Lipid Storage Modulators in Drosophila S3 Cells;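 as to cell number change: cells counted by Cell Tracker Red CMTPX staining in the red channel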
Conditions: BODIPY lipid droplet fluorescence, 18-24 h; for cell number change: measured here: cell count max response, cells fed with added oleic acid
Summary of the method: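 Laser-scanning cytometry quantifies lipid droplet accumulation (500–530 nm total intensity; droplet/cell object ratio) in oleic acid-fed (400 uM added) Drosophila S3 cells treated with a concentration series. 20 uM Triacsin C defined 100% inhibition.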

[1] = measured here: cell number channel AC50, cells fed with added oleic acid
[2] = measured here: lipid fluorescence (Fed channel) AC50, cells fed with added oleic acid

Compound | cell number change | AC50 [1] | AC50 [2]
COc1cc(C(=S)N2CCOCC2)ccc1OC(=O)c1ccc(Br)cc1 | -69.6% | 23.1 µM [falling, partial curve] | 
Cc1ccccc1OCC(=O)Nc1cc(S(=O)(=O)N2CCOCC2)ccc1N1CCCC1 | 30.2% | 29.1 µM [rising, single point] | 6.51 µM [rising, single point]
CCOC(=O)c1c(NC(=O)C[n+]2ccc(N(C)C)cc2)sc(C)c1C | 6.06% |  | 6.51 µM [rising, partial curve, poor fit]
O=C1S/C(=C/c2ccccc2)C(=O)N1CC(O)Cn1c2ccccc2c2ccccc21 (stereo not given) |  |  | 29.1 µM [falling, single point]
Cc1ccc2c(C)ccc(O)c2n1 | 0.582% |  | 1.64 µM [falling, full curve]
Cc1ccc(NC(=O)C2CCN(C(=O)N3CCOc4ccccc43)CC2)cc1 | 3.46% |  | 29.1 µM [rising, single point]
COc1ccc(S(=O)(=O)N2CCOCC2)cc1NC(=O)Cc1ccccc1Cl | 9.99% |  | 4.11 µM [rising, single point]
Cc1cc(C(=O)N/N=C/c2ccc(O)c(O)c2O)c(C)n1-c1ccccc1 | 2.9% |  | 0.651 µM [falling, single point]
O=C(CSc1nccn(-c2ccc(F)c(F)c2)c1=O)NC1CCCC1 | 30.2% | 16.4 µM [rising, partial curve, poor fit] | 14.6 µM [rising, partial curve]
Cc1ccnc(SCC(=O)c2cc3ccccc3o2)n1 | 0.683% |  | 0.461 µM [falling, single point]
O=C(NCCc1ccccc1)c1ccc(Cl)c(S(=O)(=O)N2CCOCC2)c1 | -22.9% |  | 7.31 µM [rising, single point]
O=C(CSc1ncc(-c2ccccc2)n1CC1CCCO1)N1CCCCC1 (stereo not given) | -93.6% | 29.1 µM [falling, single point] | 
CC(C)CCNC(=O)NC(=O)CSc1nnc(-c2ccccc2Br)o1 | 33% |  | 0.58 µM [rising, single point]
Cc1cnc(C(=O)OCC(=O)Nc2cc(-c3ccccc3)nn2-c2ccccc2)cn1 |  |  | 29.1 µM [rising, single point]
Cc1ccc(-c2csc(NC(=O)CSc3nc4ccccc4[nH]3)n2)cc1 | -48% | 16.4 µM [falling, single point] | 23.1 µM [falling, single point]
O=C1NC(=S)S/C1=C\C=C\c1ccc([N+](=O)[O-])o1 |  |  | 5.8 µM [falling, partial curve]
COC(=O)c1ccccc1NC(=O)c1noc2c1CC(C(C)(C)C)CC2 (stereo not given) |  |  | 0.58 µM [rising, single point]
O=C(c1cc(COc2ccc3ncccc3c2)on1)N1CCCC(O)C1 (stereo not given) | -21.1% |  | 20.6 µM [falling, single point]
CN(c1ccc(C(=O)O)cc1)S(=O)(=O)c1ccccc1 | 4.82% |  | 5.8 µM [falling, full curve]
Cc1ccc(C2c3c(C)nn(-c4ccc([N+](=O)[O-])cc4)c3N=C3C(=O)Nc4ccccc4N32)cc1 (stereo not given) | 22.3% |  | 0.0058 µM [rising, full curve, poor fit]
Cc1nc2ncnn2c(C)c1CCC(=O)NCc1ccc2c(c1)OCO2 | 0.837% | 0.116 µM [rising, full curve, poor fit] | 

Given as tab-separated lines: part of the list above
Compound	cell number change	AC50 [1]	AC50 [2]
Cc1ccnc(SCC(=O)c2cc3ccccc3o2)n1	0.683%		0.461 µM [falling, single point]
O=C(NCCc1ccccc1)c1ccc(Cl)c(S(=O)(=O)N2CCOCC2)c1	-22.9%		7.31 µM [rising, single point]
O=C(CSc1ncc(-c2ccccc2)n1CC1CCCO1)N1CCCCC1 (stereo not given)	-93.6%	29.1 µM [falling, single point]	
CC(C)CCNC(=O)NC(=O)CSc1nnc(-c2ccccc2Br)o1	33%		0.58 µM [rising, single point]

Additional structures follow:

Compound | cell number change | AC50 [1] | AC50 [2]
CCCCn1c(SCC(=O)c2ccc3c(c2)OCCO3)nnc1-c1ccoc1C | 15% |  | 
CS(=O)(=O)N(CCCC(=O)N1CCCCCC1)c1cccc(Cl)c1 | -23.6% |  | 29.1 µM [falling, single point]
CC(C)(C)S(=O)(=O)c1ccc2nc3c(n2c1)CCCC3 | -10.2% |  | 6.51 µM [rising, partial curve, poor fit]
Cc1cccc(C(C)C)c1NC(=O)C1CCN(S(=O)(=O)c2ccccc2)CC1 | 7.26% |  | 
O=C/C(=C\Nc1ccc(Cl)cn1)c1nc2cc(Cl)ccc2o1 | -5.68% |  | 0.82 µM [falling, full curve]
O=C(COc1ccccc1)NC(=S)N1CCc2ccccc21 |  |  | 29.1 µM [rising, single point]
CNC(=S)N/N=C/c1cn(CCOc2ccc(OC)cc2)c2ccccc12 | 1.75% |  | 0.82 µM [rising, full curve, poor fit]
CC(Sc1nnc(CN2CCCC2)n1Cc1ccccc1)C(=O)Nc1ccc(F)cc1 (stereo not given) | 12.9% |  | 
CC(C)[C@H](NC(=O)[C@@H]1CSC2c3ccccc3C(=O)N21)C(=O)NC1CCCC1 (stereo not given in full) | -35% | 25.9 µM [falling, single point] | 29.1 µM [rising, single point]
CCOCCCNC(=O)c1cccc(NC(=O)C2=C(C)OCCS2)c1 | -22.5% |  | 29.1 µM [falling, single point]
O=C1C(=O)c2ccccc2C(O)=C1CCCCl | -22.5% |  | 0.00517 µM [falling, full curve, poor fit]
CC(C)c1nc(SCC(=O)NC2CCCC2)c2c(=O)n(C)c(=O)n(C)c2n1 | 2.35% |  | 0.103 µM [falling, full curve, poor fit]
O=c1[nH]n2c(=O)c3c([nH]c2c1N=Nc1cccc(Cl)c1)CCC3 | 18.6% |  | 6.51 µM [rising, single point]
O=C(Cn1ccc2ccccc2c1=O)NCC(=O)N1CCCCC1 | 1.59% |  | 6.51 µM [rising, single point]
CC(Oc1ccc(Cl)cc1)c1ccnn1S(C)(=O)=O (stereo not given) | 47.3% | 29.1 µM [rising, single point] | 
C=CC(O)(C#CCN(CC)CC)c1ccccc1 (stereo not given) | -27.8% |  | 25.9 µM [falling, single point]
CC(=O)Nc1ccc(NC(=O)CSc2nnnn2C2CCCCC2)cc1 | 9% |  | 6.51 µM [rising, single point]
COc1ccccc1CNC(=O)c1ccc(S(=O)(=O)N2CCCC2)cc1 |  |  | 5.8 µM [falling, full curve]
COc1ccc(C(=O)OCC(=O)N2CCCCC2)cc1[N+](=O)[O-] | 35.3% | 0.0366 µM [rising, full curve, poor fit] | 7.31 µM [rising, partial curve, poor fit]
O=C(NCC1COCCO1)c1ccc2nc(Cc3cccc(Cl)c3)oc2c1 (stereo not given) | -2.93% |  | 20.6 µM [rising, single point]
COc1ccccc1NS(=O)(=O)c1ccc(O)cc1 | 11.1% |  | 

Compound | cell number change | AC50 [1] | AC50 [2]
O=C(Nc1cccc(C(=O)NC2CC2)c1)c1ccc(Cl)c(S(=O)(=O)N2CCOCC2)c1 | 10.4% | 6.51 µM [rising, single point] | 13 µM [falling, partial curve]
Cc1cc(C)n(-c2cccc(Cl)c2C#N)n1 | -8.83% |  | 
C=CCN(c1ccccc1)S(=O)(=O)c1cccc(C(=O)Oc2ccc3c(C)cc(=O)oc3c2)c1 | 24.5% |  | 
COc1ccccc1/C=C/c1nc2ccc(OC(C)=O)cc2c(=O)o1 | 30.4% |  | 
CC(C)(C)C(=O)Nc1ccc(C(=O)CN2C(=O)NC3(CCOc4ccccc43)C2=O)cc1 (stereo not given) | -12% |  | 
O=C(COc1ccc(F)cc1)Nc1nnc(C2CC2)s1 | 26.3% |  | 6.51 µM [falling, single point]
CSCCC(Nc1ccc(S(=O)(=O)N2CCOCC2)cc1[N+](=O)[O-])C(=O)OCC(=O)N(C(C)C)C(C)C (stereo not given) | 6.71% |  | 0.651 µM [falling, partial curve, poor fit]
O=C(NC(=S)Nc1ccc(S(=O)(=O)N2CCCC2)cc1)C1CC1 | -7.01% | 0.731 µM [falling, single point] | 0.731 µM [falling, partial curve, poor fit]
Cc1cccc(NC(=O)C(NS(=O)(=O)c2ccc3c(c2)CCC(=O)N3)c2ccccc2)n1 (stereo not given) | 53.6% | 11.6 µM [rising, partial curve, poor fit] | 8.2 µM [rising, partial curve]
COc1ccc(O)c(C=Nc2cc(C)on2)c1 | -8.3% |  | 
CN1/C(=C\C(=S)NC(=O)c2cccc(Br)c2)C(C)(C)c2ccccc21 | -48.6% | 13 µM [falling, partial curve] | 11.6 µM [falling, partial curve]
CN1c2ccsc2C(O)=C(C(=O)Nc2ccccc2)S1(=O)=O | 35% | 8.2 µM [rising, partial curve] | 
COc1ccc(Cc2nc3ccc(C(=O)N(C)CCO)cc3o2)cc1 | 18.2% |  | 23.1 µM [rising, partial curve]
Cc1ccccc1-c1cc(C(=O)NCc2cccs2)n(CC2CC(c3cccnc3)=NO2)n1 (stereo not given) | 4.27% | 0.092 µM [falling, single point] | 0.116 µM [falling, full curve]
CCOc1ccc(C2C(C#N)=C(N)N(N(C)C)C3=C2C(=O)CCC3)cc1 (stereo not given) | 9.72% |  | 
CN(CC(=O)Nc1ccc(Cl)cc1)C(=O)Cc1c(F)cccc1Cl | 16.2% |  | 
CC(C)c1ccccc1NCC(=O)N1CCN(Cc2ccccc2)CC1 | 2.84% |  | 
CC(C)OCC1CO1 (stereo not given) | 15.7% |  | 0.92 µM [rising, partial curve]
Cc1ccc(OCC(=O)N/N=C2/SCC(=O)N2Cc2ccccc2)cc1 | 14.7% |  | 0.00461 µM [rising, full curve, poor fit]
COc1ccccc1C(=O)NCCC(=O)NNC(=O)Cn1ccc(C(F)(F)F)n1 | 7.47% |  | 
